One data set relates to Splenocytes. The experiment in a line: Cytotoxicity in primary splenocytes, alamarBlue, 72 h. It is filed as cell-based, mouse. Conditions: CC50/EC50 between intramacrophage amastigotes and splenocytes. Here is the method: (§1) For cytotoxicity tests, several mammalian cell lines were used. […] Primary cell cultures were also used to evaluate cytotoxicity. […] BMDM cells were differentiated for one week with 30 % […] from L929 cell line.
(§2) The in vitro cytotoxicity of the selected nitrofurans was evaluated in HepG2, RAW 264.7 cells, splenocytes and BMDM. In each well of a 96-well microtitre plate, 100 μL containing 10,000 HepG2 or RAW 264.7 cells were incubated for 24h at 37 °C and 5 % CO2 to allow the cells to settle. For primary cells, 100 μL containing 100,000 BMDM or 1,000,000 splenocytes were added to each well. Subsequently, […] of one-half serial dilutions of each compound diluted in DMEM (for HepG2 cells), RPMI medium (for RAW cells), splenocyte medium (for splenocytes) or BMDM medium supplemented with 10 % GM-CSF (for BMDM), were added to each well. The cytotoxic effect of the compounds was measured after 72 h of incubation at 37 °C and 5 % CO2. For this purpose, a 10 % (v/v) of the alamarBlue™ cell viability reagent (Invitrogen, Fisher Scientific International Inc., Pittsburgh, PA, USA) was added, and the reaction was incubated for 4 h at 37 °C and 5 % CO2. Fluorescence was measured using a Varioskan Lux spectrophotometer (ThermoFisher Scientific, Waltham, MA, USA). Positive controls consisting of 0.1 % (v/v) H2O2, and negative controls, consisting of 0.1 % (v/v) DMSO, were also included on each plate.
(§3) All experiments were carried out in triplicate and included at least three technical replicates. […] The SI was calculated from the CC50/EC50 ratio.

In a further data set the test system is HepG2 cells. The experiment in a line: Cytotoxicity, alamarBlue, 72 h. In kind it is cell-based, human. Conditions: CC50/EC50 between axenic amastigotes and HepG2 cells. As to the method: as §1, §2, §3
The next data set relates to RAW 264.7 cells. As to the kind of experiment: Cytotoxicity, alamarBlue, 72 h. The conditions noted are these: CC50/EC50 between axenic amastigotes and RAW 264.7 cells. It is filed as cell-based, murine. Here is the method:
as §1, §2, §3

In a further data set the test system is BMDM. The experiment in a line: Cytotoxicity in bone marrow-differentiated macrophages, alamarBlue, 72 h. It is filed as cell-based, mouse. Conditions: CC50/EC50 between intramacrophage amastigotes and BMDM. As to the method:
as §1, §2, §3

Turning to `CC(=O)OC(OC(C)=O)c1ccc([N+](=O)[O-])o1` [5-nitro-2-furaldehide diacetate, 5-Nitro-2-furaldehyde diacetate], the SI1 in the data set with Splenocytes is given as 2.40; with HepG2 cells, 6.92. The SI2 was 4.49 in the data set with RAW 264.7 cells and 2.59 with BMDM.
Turning to `N#Cc1ccc([N+](=O)[O-])o1` [5-nitro-2-furonitrile, 5-Nitro-2-furonitrile], the SI1 with Splenocytes is on record as 5.86; with HepG2 cells, 30.99. Also, the SI2 was 44.59 in the data set with RAW 264.7 cells and 17.81 with BMDM.
With `CC1CS(=O)(=O)CCN1/N=C/c1ccc([N+](=O)[O-])o1` (centres unmarked) [Nifurtimox], the SI1 in the data set on Splenocytes amounted to 37.80; in the data set with HepG2 cells, 21.44. In addition, the SI2 was determined as 12.76 in the data set with RAW 264.7 cells and 60.22 with BMDM.
In the same order, the values of `O=C1CN(/N=C/c2ccc([N+](=O)[O-])o2)C(=O)N1` [Nitrofurantoin] are 15.80, 21.95, 25.48 and 26.81.
As for `NC(=O)N/N=C/c1ccc([N+](=O)[O-])o1` [Nitrofurazone], the SI1 is 79.43 with Splenocytes, 133.67 with HepG2 cells and 133.7 in the data set on HepG2 cells (listed as nitrofurazone). The SI2 in the data set on RAW 264.7 cells turned out to be 80.84; in the data set on BMDM, 82.76.
Regarding `O=C1NN(c2ccc(F)c(Cl)c2)C(=O)C1=Cc1ccc([N+](=O)[O-])o1` [PYZD-4409, 1-(3-chloro-4-fluorophenyl)-4-[(5-nitro-2-furyl)methylene]-3,5-pyrazolidinedione], in the data set on HepG2 cells, the SI1 is recorded as 12.81. Further, the SI2 in the data set with RAW 264.7 cells turned out to be 40.73.

The record behind these values is publication PMC12344264, “Mechanistic, in-silico and in vitro studies with nitrofurans reveal potent leishmanicidal activity and inhibition of trypanothione reductase” (International Journal for Parasitology: Drugs and Drug …, 2025).
